Results are given in words; binding and its absence hold for the method and conditions named. In cells and extracts the contact can be indirect. Some results given as binding are weak or reduced against the parent protein; the word gives no strength.
Legend:
[1] = target: PKR‐Flag expressed in HEK293T cells (UniProt P19525); experiment: co-IP; HEK293T cells transfected with tagged plasmids (in some panels with circWDR37 or forced PKR expression); lysed in coIP buffer, antibody at 4 °C overnight, beads 1 h at room temperature, washed ten times, western blot
[2] = target: double‐stranded RNA‐activated protein kinase R (PKR), endogenous in NPC cells (human (endogenous in HONE1 and S18)) (UniProt P19525); experiment: co-IP; endogenous proteins in HONE1 and S18 cells
GST‐PKR = GST‐PKR (UniProt P19525); experiment: pull-down; 20 µg purified GST-PKR or GST-PKR^T446DT451D on glutathione Sepharose 4B; lysate of transfected 293T cells added at 4 °C overnight; washed six times with NETN buffer (20 mM Tris-HCl pH 8.0, 100 mM NaCl, 1 mM EDTA, 0.5% NP-40); western blot; only the target purified

Amino acid sequences for entries named in this document (tags omitted). A change or cut given only in a name is not applied to a line headed by its entry.
UniProt P19525: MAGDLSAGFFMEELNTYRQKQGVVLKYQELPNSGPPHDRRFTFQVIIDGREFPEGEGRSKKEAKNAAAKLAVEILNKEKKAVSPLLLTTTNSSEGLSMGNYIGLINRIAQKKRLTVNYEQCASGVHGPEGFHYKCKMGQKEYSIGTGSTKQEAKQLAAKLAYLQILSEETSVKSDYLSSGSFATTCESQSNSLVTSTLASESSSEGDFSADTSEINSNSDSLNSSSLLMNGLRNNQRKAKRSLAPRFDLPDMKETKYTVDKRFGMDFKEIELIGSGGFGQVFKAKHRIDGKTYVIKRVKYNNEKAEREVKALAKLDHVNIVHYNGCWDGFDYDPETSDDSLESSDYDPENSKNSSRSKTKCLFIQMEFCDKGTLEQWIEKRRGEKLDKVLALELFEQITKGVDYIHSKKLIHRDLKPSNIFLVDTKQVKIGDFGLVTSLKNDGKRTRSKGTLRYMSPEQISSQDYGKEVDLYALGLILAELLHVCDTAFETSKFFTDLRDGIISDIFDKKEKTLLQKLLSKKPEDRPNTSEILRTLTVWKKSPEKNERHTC
UniProt P25963: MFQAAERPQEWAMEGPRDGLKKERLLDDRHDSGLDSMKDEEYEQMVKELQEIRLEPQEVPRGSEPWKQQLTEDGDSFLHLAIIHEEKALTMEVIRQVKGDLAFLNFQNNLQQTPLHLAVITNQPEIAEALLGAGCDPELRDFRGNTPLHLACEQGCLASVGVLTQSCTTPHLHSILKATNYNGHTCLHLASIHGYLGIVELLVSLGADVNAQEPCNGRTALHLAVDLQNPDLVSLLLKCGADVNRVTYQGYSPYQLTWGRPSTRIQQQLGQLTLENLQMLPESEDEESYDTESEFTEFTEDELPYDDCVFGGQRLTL
UniProt Q04206: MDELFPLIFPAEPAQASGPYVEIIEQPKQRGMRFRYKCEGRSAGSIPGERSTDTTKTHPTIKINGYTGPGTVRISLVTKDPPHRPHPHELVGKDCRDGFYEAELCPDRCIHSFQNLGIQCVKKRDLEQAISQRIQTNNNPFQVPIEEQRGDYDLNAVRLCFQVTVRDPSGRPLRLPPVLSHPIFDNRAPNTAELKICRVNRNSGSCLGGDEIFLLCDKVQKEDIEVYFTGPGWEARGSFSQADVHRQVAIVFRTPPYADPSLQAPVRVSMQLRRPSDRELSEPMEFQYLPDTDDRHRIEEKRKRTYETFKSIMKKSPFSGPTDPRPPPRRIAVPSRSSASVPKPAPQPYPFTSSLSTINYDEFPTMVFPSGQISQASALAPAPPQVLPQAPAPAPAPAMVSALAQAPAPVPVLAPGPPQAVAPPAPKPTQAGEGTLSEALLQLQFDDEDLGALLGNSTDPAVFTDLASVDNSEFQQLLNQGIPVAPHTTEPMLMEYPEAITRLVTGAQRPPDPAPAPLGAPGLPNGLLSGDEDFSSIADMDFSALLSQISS

Substance: IκBα‐myc (NF‐κB inhibitor alpha) (from UniProt P25963 1-317)
- binding [1]: binds

Substance: RELA (also known as p65), endogenous in NPC cells (from UniProt Q04206 1-551)
- binding [2]: binds

Substance: p65‐HA, full length (from UniProt Q04206 1-551)
- binding [1]: binds
- binding (GST‐PKR): binds

Substance: p65‐RHD (Rel homology domain of p65), HA-tagged (from UniProt Q04206 19-306) (domain or fragment)
- binding [1]: binds

Reference: PMC10015868
